In PubChem BioAssay AID1117319 (Southern Research Institute, 2015):
In all, about 260,000 compounds went through this assay and about 1,500 (0.58%) were called active. The inconclusive results got no clear call from the source; some entries with a clear call stand among them for comparison.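 How the source made its calls: active means inhibition above a set limit at one or more doses, reproduced on every date tested; inconclusive means results disagree between test dates, or hit never tested in dose response; inactive means the rest.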

Sequences of proteins named here, by UniProt entry; tags and fusion partners are left off. A change or cut given only in a name is not applied to a line headed by its entry.
UniProt P69720: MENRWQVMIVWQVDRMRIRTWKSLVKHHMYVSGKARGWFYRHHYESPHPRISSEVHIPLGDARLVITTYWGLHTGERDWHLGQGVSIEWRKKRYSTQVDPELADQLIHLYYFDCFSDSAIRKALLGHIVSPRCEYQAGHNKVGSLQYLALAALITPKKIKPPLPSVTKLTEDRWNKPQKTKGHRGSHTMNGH
UniProt P69721: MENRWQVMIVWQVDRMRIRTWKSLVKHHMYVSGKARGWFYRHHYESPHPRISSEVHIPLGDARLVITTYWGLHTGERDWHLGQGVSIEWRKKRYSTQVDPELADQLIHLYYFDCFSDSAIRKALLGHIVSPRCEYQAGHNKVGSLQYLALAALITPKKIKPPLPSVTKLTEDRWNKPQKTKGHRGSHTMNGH
UniProt P69722: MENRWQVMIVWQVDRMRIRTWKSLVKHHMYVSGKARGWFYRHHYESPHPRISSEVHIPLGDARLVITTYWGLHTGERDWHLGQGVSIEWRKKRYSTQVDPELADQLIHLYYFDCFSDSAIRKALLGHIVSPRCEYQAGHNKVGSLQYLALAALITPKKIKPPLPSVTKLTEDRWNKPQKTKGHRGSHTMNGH
UniProt P69723: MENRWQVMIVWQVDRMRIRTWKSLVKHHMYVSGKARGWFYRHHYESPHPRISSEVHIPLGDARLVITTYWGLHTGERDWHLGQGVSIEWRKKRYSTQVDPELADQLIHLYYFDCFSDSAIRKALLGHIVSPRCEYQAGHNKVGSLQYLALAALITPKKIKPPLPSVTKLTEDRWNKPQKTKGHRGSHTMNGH
UniProt Q9HC16: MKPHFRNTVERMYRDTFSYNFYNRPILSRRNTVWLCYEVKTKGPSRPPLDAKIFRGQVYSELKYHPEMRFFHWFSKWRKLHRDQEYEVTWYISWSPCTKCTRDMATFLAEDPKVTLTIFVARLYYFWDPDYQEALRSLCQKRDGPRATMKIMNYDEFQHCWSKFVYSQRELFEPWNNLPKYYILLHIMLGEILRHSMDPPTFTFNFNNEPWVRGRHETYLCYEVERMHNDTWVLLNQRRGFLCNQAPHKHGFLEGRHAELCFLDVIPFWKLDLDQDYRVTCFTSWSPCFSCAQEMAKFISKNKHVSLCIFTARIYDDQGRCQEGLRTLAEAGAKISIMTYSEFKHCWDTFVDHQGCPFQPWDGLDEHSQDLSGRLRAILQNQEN

Biological target: Virion infectivity factor (Human immunodeficiency virus type 1 group M subtype B (isolate BH10)) + Virion infectivity factor (Human immunodeficiency virus type 1 group M subtype B (isolate BRU/LAI)) + Virion infectivity factor (Human immunodeficiency virus type 1 group M subtype B (isolate PCV12)) + Virion infectivity factor (Human immunodeficiency virus type 1 group M subtype B (isolate HXB2)) + DNA dC->dU-editing enzyme APOBEC-3G (Homo sapiens) (UniProt P69720+P69721+P69722+P69723+Q9HC16)
Experiment: inhibitors of Vif binding to APOBEC3G peptide, primary screen, biochemical, TR-FRET, GST-Vif 1-94, biotin-A3G peptide, dose response retest (AID 1117319);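 further: Vif residues 1-94 fused to GST binding biotinylated APOBEC3G peptide 110-148; 0% = full assay without inhibitor and 100% = GST in place of GST-Vif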
Details: hits give high values

Structure (SMILES) | inhibition
COc1cccc(N2CC(C(=O)NC3CCCCC3)CC2=O)c1 (centres undefined) | inconclusive: 60.3%
CS(=O)(=O)N1CCCC(C(=O)NCCc2ccccc2)C1 (centres undefined) | inconclusive: 56.7%
Cc1cc(C(=O)OC(C)C(=O)NC2CCCCC2C)c2ccccc2n1 (centres undefined) | inactive: -2.6%
O=C(NCc1ccccc1)C(=O)NCC1OCCN1C(=O)c1ccc(Cl)cc1 (centres undefined) | inconclusive: 39.1%
O=C(Cn1c2c(c(-c3ccccc3Cl)cc1=O)CCC2)NCC1CCCO1 (centres undefined) | inconclusive: 37.5%
O=C(N/N=C/c1ccc([N+](=O)[O-])cc1)c1ccc(COc2ccccc2-c2ccccc2)cc1 | inconclusive: 59.8%
CC1=NOC(=O)/C1=C\c1ccc(-c2cccc(Cl)c2)o1 | inconclusive: 38.7%
CCOC(=O)c1cc(-c2ccc(OC)cc2F)nc2c1c(C)nn2CCC#N | inactive: 15.4%
CC1=C(C#N)C(c2ccoc2)C(C(=O)OCc2ccccc2)=C(N)S1 (centres undefined) | inconclusive: 50.7%
COc1ccc(NCc2ccc(OC)c(OC)c2)cc1 | inconclusive: 36.4%
O=C(C1CCN(CC2CCCCC2)CC1)N1CCCC1 | inconclusive: 42.8%
COc1ccc2c(c1)c1ccccc1n2C | inactive: 1.57%
COc1ccc(NS(=O)(=O)c2ccc(NC(=O)c3ccc(N(C)S(C)(=O)=O)cc3)cc2)c(OC)c1 | inconclusive: 36.8%
Clc1ccccc1CO/N=C1\CCCc2nonc21 | inconclusive: 38.7%
CCCCCn1c(CN2CCCCC2C)nc2c1c(=O)n(C)c(=O)n2C (centres undefined) | inconclusive: 42.4%
CC(C)c1cc(NCCCN2CCOCC2)n2c(nc3ccccc32)c1C#N | inconclusive: 38.4%
O=[N+]([O-])c1ccc(N(c2ccccc2)c2ccccc2)cc1 | inconclusive: 35.4%
O=C(CN1CCN(Cc2cccc(Cl)c2)C1=O)NCc1ccccn1 | inconclusive: 34.4%
CCS(=O)(=O)Nc1ccc(C2=NN(C(C)=O)C(c3cccs3)C2)cc1 (centres undefined) | inconclusive: 48.3%
CN(C)C(=O)CCc1ccc2c3c([nH]c2c1)[C@]1(CCC2CCCC2)[C@@H](C(=O)N2CCOCC2)C[C@H](CC(=O)NCCC2=CCCCC2)C(=O)N1CC3 | inactive: 4.07%
O=C(N=Nc1c(O)[nH]c2ccccc12)c1ccccc1NS(=O)(=O)c1cccs1 | inconclusive: 51.7%
Cc1[nH]nc2c1C(c1ccccc1F)CC(=O)N2 (centres undefined) | inconclusive: 38.9%
O=C(c1ccc([N+](=O)[O-])cc1)n1nc(-c2ccccc2)nc1NCc1ccccc1 | inconclusive: 36.8%

Five records picked at random from those above:
Structure (SMILES) | inhibition
O=C(CN1CCN(Cc2cccc(Cl)c2)C1=O)NCc1ccccn1 | inconclusive: 34.4%
CCOC(=O)c1cc(-c2ccc(OC)cc2F)nc2c1c(C)nn2CCC#N | inactive: 15.4%
O=C(NCc1ccccc1)C(=O)NCC1OCCN1C(=O)c1ccc(Cl)cc1 (centres undefined) | inconclusive: 39.1%
CCCCCn1c(CN2CCCCC2C)nc2c1c(=O)n(C)c(=O)n2C (centres undefined) | inconclusive: 42.4%
O=C(c1ccc([N+](=O)[O-])cc1)n1nc(-c2ccccc2)nc1NCc1ccccc1 | inconclusive: 36.8%

Remaining list, next part

Structure (SMILES) | inhibition
O=C(/C=N/O)Nc1cccnc1 | inactive: 28.5%
COc1ccc(-c2ccc(CNCCCN3CCOCC3)o2)cc1Cl | inconclusive: 38.8%
CC(=O)NS(=O)(=O)c1ccc(NC(=O)c2cc(-c3ccc(C)cc3)nc3ccccc23)cc1 | inconclusive: 38.1%
COc1ccc(/C=C2/SC(=S)N(CCCC(=O)Nc3cccc(O)c3)C2=O)cc1 | inactive: 4.43%
CCn1nc(C)c(Br)c1-c1nc(-c2cccc(C)c2)no1 | inconclusive: 44.5%
O=S(=O)(NCc1ccc(F)cc1)c1ccc(-n2cccn2)cc1 | inconclusive: 46.8%
CCC(CC)C(=O)N1N=C(c2ccc(NS(C)(=O)=O)cc2)CC1c1ccc(C)cc1 (centres undefined) | inconclusive: 39.4%
Cn1c(SCC(=O)NCc2ccco2)nnc1-c1ccc(S(=O)(=O)N2CCOCC2)cc1 | inconclusive: 49%
Cc1cccc(/C=N/n2c(C)cc(C)c(C#N)c2=O)c1 | inconclusive: 35.8%
Cc1ccccc1NC(=O)CSc1ccsc1[N+](=O)[O-] | inconclusive: 39.3%
O=C(NC(=S)Nc1ccc(NC(=O)c2cccs2)cc1)c1ccc([N+](=O)[O-])cc1 | inconclusive: 50.2%
Cc1cc(C)nc(SCC(=O)c2ccc(O)cc2O)n1 | inconclusive: 42.3%
CCc1cc(C(=O)c2ccc(C)cc2)c(NC(=O)CCl)s1 | inconclusive: 35.8%
O=C(CC1C(=O)NCCN1Cc1ccc(Cl)c(F)c1)NCCc1cccnc1 (centres undefined) | inconclusive: 37.8%
CC(C)Oc1ccc(Cc2c(O)nc(NCCCN(C)C)[nH]c2=O)cc1 | inconclusive: 44.5%
CCOC(=O)c1ccc(NC(=S)NCCc2ccc(OC)c(OC)c2)cc1 | inconclusive: 55%
O=C(Cc1ccccc1)NCCS(=O)c1ccc(Cl)cc1 (centres undefined) | inconclusive: 52.5%
NS(=O)(=O)c1ccc(N/N=C/c2ccc3c(c2)OCO3)c([N+](=O)[O-])c1 | inconclusive: 53%
CN1CCCN(C(c2ccccc2)c2ccc(Cl)cc2)CC1 (centres undefined) | inconclusive: 50.1%
CCC(C)NC(=O)C1CCN(c2nc(C)cc(C)n2)CC1 (centres undefined) | inconclusive: 33.5%
O=C(c1ccccc1-c1ncc[nH]1)N1CCCC(Nc2ccc(F)cc2)C1 (centres undefined) | inconclusive: 54.2%
Clc1ccc(OCCOCCOc2cccc3cccnc23)c(Br)c1 | inconclusive: 39.1%
COc1ccc(NC(=S)N(CCO)Cc2ccccc2)cc1 | inconclusive: 56.7%

Structure (SMILES) | inhibition
O=C(Nc1cccc2ccccc12)/C(=C/c1cccc([N+](=O)[O-])c1)NC(=O)c1cccs1 | inconclusive: 35.7%
O=C1NCCCC2c3c(cc(Br)c(O)c3Br)OC12N1CCOCC1 (centres undefined) | inconclusive: 39.2%
O=C(N/C=C/c1ccco1)NCc1ccccc1 | inconclusive: 38.8%
CC(=O)NC(c1ccccc1)c1cc([N+](=O)[O-])c2cccnc2c1O (centres undefined) | inconclusive: 41.9%
Cn1cc(C(=O)c2ccc(Cl)cc2Cl)cc1C(=O)N/N=C(\N)COc1ccccc1 | inconclusive: 37.3%
CCOC(=O)c1c(C(C)(C)C)oc2ccc(OCC#N)cc12 | inconclusive: 49%
CN(C)c1nnnn1-c1ccc(Oc2ccccc2)cc1 | inconclusive: 57.6%
CCC(C(=O)NCc1ccco1)N(C(=O)CNS(=O)(=O)c1ccc(C)cc1)c1ccccc1OC (centres undefined) | inconclusive: 51.5%
COc1ccccc1C(O)(c1ccccc1)C(CN1CCOCC1)c1ccccc1 (centres undefined) | inactive: 3.77%
CCOC(=O)c1sc(NC(=O)COC(=O)Cn2cnc3ccccc32)c(C(=O)OCC)c1C | inconclusive: 42.2%
CC1(C)Cc2nc3oc4c(N5CCOCC5)ncnc4c3cc2CO1 | inconclusive: 55.1%
c1ccc(CN2CCc3[nH]c4ccccc4c3C2)cc1 | inactive: -5.69%
CC1(C(=O)NC2CCCCCC2)CCC(=O)N1Cc1ccc2c(c1)OCO2 (centres undefined) | inconclusive: 38.4%
O=C1NC(=S)S/C1=C1\Sc2ccccc2N1CCCS(=O)(=O)O | inconclusive: 33.1%
O=C(O)CSc1nnc(CNc2cccc(C(F)(F)F)c2)n1Cc1ccco1 | inconclusive: 49.7%
Cc1oc(C(=O)O)cc1COc1cccc2cccnc12 | inconclusive: 45%
c1ccc(Oc2cc(-c3ccccc3)ncn2)cc1 | inconclusive: 37.7%
Cc1ccc(C(=O)OCC(=O)Nc2cc(C(C)(C)C)no2)c(C)c1 | inconclusive: 40.7%
O=C(Nc1ccccc1)c1cc(-n2cnnc2)ccc1Cl | inconclusive: 57.5%
O=C1C(Cl)=C(NS(=O)(=O)c2ccc([N+](=O)[O-])cc2)C(=O)c2ccccc21 | inconclusive: 34.7%
COCCn1nnnc1C(c1ccc(OC)cc1OC)N1CCN(c2ccccc2)CC1 (centres undefined) | inconclusive: 39.3%
CCN(C(=O)c1c(C)cc(=O)oc1C)c1ccc2c(c1)OCO2 | inconclusive: 48.6%
C=CCNC(=O)c1onc(CSc2ccccc2F)c1C(=O)O | inconclusive: 53.8%

Structure (SMILES) | inhibition
O=S1(=O)CCN=C2SC3=C(CCCC3)N21 | inconclusive: 36.6%
CCOC(=O)CC1C(=O)NCCN1S(=O)(=O)c1ccc(Cl)cc1Cl (centres undefined) | inconclusive: 52.8%
COc1ccccc1NC(=O)N1CCCC1C(=O)Nc1ccc(NC(C)=O)cc1 (centres undefined) | inconclusive: 44.6%
CC(Sc1nnc(-c2ccccc2)c(-c2ccccc2)n1)C(=O)N1CCc2ccccc21 (centres undefined) | inconclusive: 52.2%
CCOCCCNC(=O)C(NC(=O)c1ccc2c(c1)OCO2)c1ccc(OC)cc1 (centres undefined) | inconclusive: 36.2%
Fc1ccc(COc2cccc(-c3n[nH]c(=S)o3)c2)cc1 | inconclusive: 51.4%
Cc1cccc(OCc2nnc(NC(=O)Cc3cccs3)s2)c1 | inactive: -15.6%
O=C(N/N=C/c1ccc2c(c1)OCO2)c1cc2ccccc2o1 | inconclusive: 46.8%
Nc1n[nH]c(-c2cccc([N+](=O)[O-])c2)n1 | inconclusive: 36.5%
Cn1nc(C(=O)Nc2ccc(S(=O)(=O)Nc3ncccn3)cc2)ccc1=O | inconclusive: 38.7%
OCCNCC(O)Cn1ccc2ccccc21 (centres undefined) | inconclusive: 26.8%
CC1(C)S[C@@H]2[C@H](NC(=O)[C@H](N)c3ccccc3)C(=O)N2[C@H]1C(=O)O | inconclusive: 33.2%
CC(C)(Oc1ccc(Cl)cc1)C(=O)NCc1ccncc1 | inconclusive: 41.9%
Brc1ccc(C2=CC(c3ccco3)n3ncnc3N2)cc1 (centres undefined) | inconclusive: 36.1%
O=C(CCC1CCCN(C(=O)Cn2cnnn2)C1)NCc1ccc(F)c(F)c1 (centres undefined) | inconclusive: 41.5%
Cc1ccc(-c2cccc(NC(=O)C3C(C(=O)O)[C@@H]4C=C[C@H]3C4)c2)o1 (some centres undefined) | inconclusive: 34.1%
CCCOc1ccccc1C1NC(=O)NC(C)=C1C(=O)OCc1ccccc1 (centres undefined) | inactive: -9.5%
Cc1ccc2c(c1)c1c(n2C)C(C(N)=O)CCC1 (centres undefined) | inconclusive: 40.1%
O=C1Nc2ccccc2C12Nc1ccccc1-c1nc3ccccc3n12 (centres undefined) | inconclusive: 54.8%
CCO[C@@H]1OC(C(N)=O)=C[C@H](c2ccc3c(c2)OCO3)[C@H]1CCCO | inconclusive: 41%
